Experimental data as given in publication PMC3737563, “Investigation of DNA sequence recognition by a streptomycete MarR family transcriptional regulator through surface plasmon resonance and X-ray crystallography” (Nucleic Acids Research, 2013).

target: T1, SCO3205 (MarR family regulator) (Streptomyces coelicolor) (UniProt Q9KYU1); assay: SPR; details: 50 nM SCO3205; SPR (ReDCaT, Biacore T200) in HBS-EP+: 10 mM HEPES pH 7.4, 150 mM NaCl, 3 mM EDTA, 0.05% P20, 20°C; recombinant protein; residues 1-163; protein details: N-terminal His tag plus TEV site, not removed; label: biotin linker S6 hybridised to overhang
T1 sequence (looked up): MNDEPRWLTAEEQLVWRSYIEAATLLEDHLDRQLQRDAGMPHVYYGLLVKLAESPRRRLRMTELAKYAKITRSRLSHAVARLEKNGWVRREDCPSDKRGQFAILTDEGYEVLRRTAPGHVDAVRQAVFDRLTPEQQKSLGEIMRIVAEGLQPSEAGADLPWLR

Sequence | binding result | binding signal (% of theoretical Rmax)
CAATACTTGAACTCTCTATCTTTA / TAAAGATAGAGAGTTCAAGTATTGCCTACCCTACGTCCTCCTGC [O3204_A16T] | binds more weakly | –
CAATACTTGAACTCTCAGTCTTTA / TAAAGACTGAGAGTTCAAGTATTGCCTACCCTACGTCCTCCTGC [O3204_A17G] | binds more weakly | –
CAATACTGGAACTCTCAATCTTTA / TAAAGATTGAGAGTTCCAGTATTGCCTACCCTACGTCCTCCTGC [O3204_T7G] | binds more weakly | –
CAATACTTGAACTCTCACTCTTTA / TAAAGAGTGAGAGTTCAAGTATTGCCTACCCTACGTCCTCCTGC [O3204_A17C] | binds more weakly | –
CAATACTTGAACTCCCAATCTTTA / TAAAGATTGGGAGTTCAAGTATTGCCTACCCTACGTCCTCCTGC [O3204_T14C] | binds more weakly | –
CAATACTCGAACTCTCAATCTTTA / TAAAGATTGAGAGTTCGAGTATTGCCTACCCTACGTCCTCCTGC [O3204_T7C] | binds more weakly | –
CAATACATGAACTCTCAATCTTTA / TAAAGATTGAGAGTTCATGTATTGCCTACCCTACGTCCTCCTGC [O3204_T6A] | binds more weakly | –
CAATACTTGAACTCTCATTCTTTA / TAAAGAATGAGAGTTCAAGTATTGCCTACCCTACGTCCTCCTGC [O3204_A17T] | binds more weakly | –
CAATACTTGAACTCTCAATCTTTA / TAAAGATTGAGAGTTCAAGTATTGCCTACCCTACGTCCTCCTGC [O3204_24mer / O3204_WT] | – | 98.6
CAATACTTGAACTCTCGATCTTTA / TAAAGATCGAGAGTTCAAGTATTGCCTACCCTACGTCCTCCTGC [O3204_A16G] | binds more weakly | –
CAATACCTGAACTCTCAATCTTTA / TAAAGATTGAGAGTTCAGGTATTGCCTACCCTACGTCCTCCTGC [O3204_T6C] | binds more weakly | –
CAATACTTGGACTCTCAATCTTTA / TAAAGATTGAGAGTCCAAGTATTGCCTACCCTACGTCCTCCTGC [O3204_A9G] | binds more weakly | –

same assay, conditions: 100 nM SCO3205, dissociates faster than O3204; SPR (ReDCaT, Biacore T200) in HBS-EP+: 10 mM HEPES pH 7.4, 150 mM NaCl, 3 mM EDTA, 0.05% P20, 20°C; recombinant protein; residues 1-163; protein details: N-terminal His tag plus TEV site, not removed; label: biotin linker S6 hybridised to overhang

Sequence | binding signal (% of theoretical Rmax)
AAGAAGTTCAAGCTTCAACCAAAA / TTTTGGTTGAAGCTTGAACTTCTTCCTACCCTACGTCCTCCTGC [O5049_24mer] | 100

same assay, conditions: 100 nM SCO3205; SPR (ReDCaT, Biacore T200) in HBS-EP+: 10 mM HEPES pH 7.4, 150 mM NaCl, 3 mM EDTA, 0.05% P20, 20°C; recombinant protein; residues 1-163; protein details: N-terminal His tag plus TEV site, not removed; label: biotin linker S6 hybridised to overhang

Sequence | binding signal (% of theoretical Rmax)
TTTTGTTTAATGTTCAAGGAACCGTCTCG / CGAGACGGTTCCTTGAACATTAAACAAAACCTACCCTACGTCCTCCTGC [fragment_12] | 100
TTGATGTTGAATGTTCAACCAGTC / GACTGGTTGAACATTCAACATCAACCTACCCTACGTCCTCCTGC [O5533_24mer] | 100
ACTCCAATACTTGAACTCTCAATCTTTAC / GTAAAGATTGAGAGTTCAAGTATTGGAGTCCTACCCTACGTCCTCCTGC [fragment_5] | 100
TACTTGAACTCTCAATCTTTACGTGCCGT / ACGGCACGTAAAGATTGAGAGTTCAAGTACCTACCCTACGTCCTCCTGC [fragment_6] | 100

same assay, conditions: LH boundary; SPR (ReDCaT, Biacore T200) in HBS-EP+: 10 mM HEPES pH 7.4, 150 mM NaCl, 3 mM EDTA, 0.05% P20, 20°C; recombinant protein; residues 1-163; protein details: N-terminal His tag plus TEV site, not removed; label: biotin linker S6 hybridised to overhang

Sequence | binding result
CGAGACGGTTCCTTGAACATTAAACAAAAT / ATTTTGTTTAATGTTCAAGGAACCGTCTCGCCTACCCTACGTCCTCCTGC [O3205_LH_Δ6] | binds

same assay, conditions: RH boundary; SPR (ReDCaT, Biacore T200) in HBS-EP+: 10 mM HEPES pH 7.4, 150 mM NaCl, 3 mM EDTA, 0.05% P20, 20°C; recombinant protein; residues 1-163; protein details: N-terminal His tag plus TEV site, not removed; label: biotin linker S6 hybridised to overhang

Sequence | binding result
ACTCCAATACTTGAACTCTCAATCTTTA / TAAAGATTGAGAGTTCAAGTATTGGAGTCCTACCCTACGTCCTCCTGC [O3204_RH_Δ8] | binds
ACGCCGATTTTGTTTAATGTTCAAGGAACC / GGTTCCTTGAACATTAAACAAAATCGGCGTCCTACCCTACGTCCTCCTGC [O3205_RH_Δ6] | binds

same assay, conditions: SPR (ReDCaT, Biacore T200) in HBS-EP+: 10 mM HEPES pH 7.4, 150 mM NaCl, 3 mM EDTA, 0.05% P20, 20°C; recombinant protein; residues 1-163; protein details: N-terminal His tag plus TEV site, not removed; label: biotin linker S6 hybridised to overhang

Sequence | binding result
ACTCCAATACTTGAACTCTCAATCTTTACGTGCC / GGCACGTAAAGATTGAGAGTTCAAGTATTGGAGTCCTACCCTACGTCCTCCTGC [O3204_RH_Δ2] | binds
ACTCCAATACTTGAACTCTC / GAGAGTTCAAGTATTGGAGTCCTACCCTACGTCCTCCTGC [O3204_RH_Δ16] | binds more weakly
ACGGCACGTAAAGATTGAGA / TCTCAATCTTTACGTGCCGTCCTACCCTACGTCCTCCTGC [O3204_LH_Δ16] | binds more weakly
ACGGCACGTAAAGATTGAGAGT / ACTCTCAATCTTTACGTGCCGTCCTACCCTACGTCCTCCTGC [O3204_LH_Δ14] | binds more weakly
ACGCCGATTTTGTTTAATGTTCAAGGAACCGTCT / AGACGGTTCCTTGAACATTAAACAAAATCGGCGTCCTACCCTACGTCCTCCTGC [O3205_RH_Δ2] | binds
ACGGCACGTAAAGATTGAGAGTTC / GAACTCTCAATCTTTACGTGCCGTCCTACCCTACGTCCTCCTGC [O3204_LH_Δ12] | binds more weakly
CGAGACGGTTCCTTGAACATTAAACAAA / TTTGTTTAATGTTCAAGGAACCGTCTCGCCTACCCTACGTCCTCCTGC [O3205_LH_Δ8] | binds more weakly
ACTCCAATACTTGAACTCTCAATCTTTACGTG / CACGTAAAGATTGAGAGTTCAAGTATTGGAGTCCTACCCTACGTCCTCCTGC [O3204_RH_Δ4] | binds
CGAGACGGTTCCTTGAACATTAAACA / TGTTTAATGTTCAAGGAACCGTCTCGCCTACCCTACGTCCTCCTGC [O3205_LH_Δ10] | binds more weakly
ACTCCAATACTTGAACTCTCAATCTTTACG / CGTAAAGATTGAGAGTTCAAGTATTGGAGTCCTACCCTACGTCCTCCTGC [O3204_RH_Δ6] | binds
ACGGCACGTAAAGATTGAGAGTTCAAGTATTGGAGT / ACTCCAATACTTGAACTCTCAATCTTTACGTGCCGTCCTACCCTACGTCCTCCTGC [O3204_LH] | binds
ACGCCGATTTTGTTTAATGTTCAAGG / CCTTGAACATTAAACAAAATCGGCGTCCTACCCTACGTCCTCCTGC [O3205_RH_Δ10] | binds more weakly
ACTCCAATACTTGAACTCTCAATC / GATTGAGAGTTCAAGTATTGGAGTCCTACCCTACGTCCTCCTGC [O3204_RH_Δ12] | binds more weakly
ACGCCGATTTTGTTTAATGTTCAAGGAACCGT / ACGGTTCCTTGAACATTAAACAAAATCGGCGTCCTACCCTACGTCCTCCTGC [O3205_RH_Δ4] | binds
ACGCCGATTTTGTTTAATGTTCAAGGAACCGTCTCG / CGAGACGGTTCCTTGAACATTAAACAAAATCGGCGTCCTACCCTACGTCCTCCTGC [O3205_RH] | binds
ACGGCACGTAAAGATTGAGAGTTCAA / TTGAACTCTCAATCTTTACGTGCCGTCCTACCCTACGTCCTCCTGC [O3204_LH_Δ10] | binds more weakly
ACGGCACGTAAAGATTGAGAGTTCAAGTATTGGA / TCCAATACTTGAACTCTCAATCTTTACGTGCCGTCCTACCCTACGTCCTCCTGC [O3204_LH_Δ2] | binds
ACTCCAATACTTGAACTCTCAATCTTTACGTGCCGT / ACGGCACGTAAAGATTGAGAGTTCAAGTATTGGAGTCCTACCCTACGTCCTCCTGC [O3204_RH] | binds

same assay, conditions: lower maximum, faster dissociation; SPR (ReDCaT, Biacore T200) in HBS-EP+: 10 mM HEPES pH 7.4, 150 mM NaCl, 3 mM EDTA, 0.05% P20, 20°C; recombinant protein; residues 1-163; protein details: N-terminal His tag plus TEV site, not removed; label: biotin linker S6 hybridised to overhang

Sequence | binding result
ACGCCGATTTTGTTTAATGTTCAAGGAA / TTCCTTGAACATTAAACAAAATCGGCGTCCTACCCTACGTCCTCCTGC [O3205_RH_Δ8] | binds more weakly

same assay, conditions: maximum similar to Δ8, slightly faster dissociation; SPR (ReDCaT, Biacore T200) in HBS-EP+: 10 mM HEPES pH 7.4, 150 mM NaCl, 3 mM EDTA, 0.05% P20, 20°C; recombinant protein; residues 1-163; protein details: N-terminal His tag plus TEV site, not removed; label: biotin linker S6 hybridised to overhang

Sequence | binding result
ACTCCAATACTTGAACTCTCAATCTT / AAGATTGAGAGTTCAAGTATTGGAGTCCTACCCTACGTCCTCCTGC [O3204_RH_Δ10] | binds

same assay, conditions: steady-state 1:1 fit; SPR (ReDCaT, Biacore T200) in HBS-EP+: 10 mM HEPES pH 7.4, 150 mM NaCl, 3 mM EDTA, 0.05% P20, 20°C; recombinant protein; residues 1-163; protein details: N-terminal His tag plus TEV site, not removed; label: biotin linker S6 hybridised to overhang

Sequence | pKd
ATTTTGTTTAATGTTCAAGGAACC / GGTTCCTTGAACATTAAACAAAATCCTACCCTACGTCCTCCTGC [O3205_24mer] | 8.62
CAATACTTGAACTCTCAATCTTTA / TAAAGATTGAGAGTTCAAGTATTGCCTACCCTACGTCCTCCTGC [O3204_24mer / O3204_WT] | 8.89

pKd: −log10 of the molar value. The exact form of at least one protein or probe is not confirmed. Weaker means in comparison with the reference protein, sequence or condition of that experiment. At least one verdict rests on a figure or table, not on a statement of the authors. Tags and fusion partners may be left off the protein sequences shown. The direction of at least one scale is not stated here.
